Results as given in paper PMC10721602.
These are yes or no findings as the source states them, for the method shown. For some assays here: In cells and extracts the contact can be indirect. Some binding calls cover weakened binding; strength is not graded here.

Sequences of proteins named here, by UniProt entry; tags and fusion partners are left off. A change or cut given only in a name is not applied to a line headed by its entry.
UniProt P78536: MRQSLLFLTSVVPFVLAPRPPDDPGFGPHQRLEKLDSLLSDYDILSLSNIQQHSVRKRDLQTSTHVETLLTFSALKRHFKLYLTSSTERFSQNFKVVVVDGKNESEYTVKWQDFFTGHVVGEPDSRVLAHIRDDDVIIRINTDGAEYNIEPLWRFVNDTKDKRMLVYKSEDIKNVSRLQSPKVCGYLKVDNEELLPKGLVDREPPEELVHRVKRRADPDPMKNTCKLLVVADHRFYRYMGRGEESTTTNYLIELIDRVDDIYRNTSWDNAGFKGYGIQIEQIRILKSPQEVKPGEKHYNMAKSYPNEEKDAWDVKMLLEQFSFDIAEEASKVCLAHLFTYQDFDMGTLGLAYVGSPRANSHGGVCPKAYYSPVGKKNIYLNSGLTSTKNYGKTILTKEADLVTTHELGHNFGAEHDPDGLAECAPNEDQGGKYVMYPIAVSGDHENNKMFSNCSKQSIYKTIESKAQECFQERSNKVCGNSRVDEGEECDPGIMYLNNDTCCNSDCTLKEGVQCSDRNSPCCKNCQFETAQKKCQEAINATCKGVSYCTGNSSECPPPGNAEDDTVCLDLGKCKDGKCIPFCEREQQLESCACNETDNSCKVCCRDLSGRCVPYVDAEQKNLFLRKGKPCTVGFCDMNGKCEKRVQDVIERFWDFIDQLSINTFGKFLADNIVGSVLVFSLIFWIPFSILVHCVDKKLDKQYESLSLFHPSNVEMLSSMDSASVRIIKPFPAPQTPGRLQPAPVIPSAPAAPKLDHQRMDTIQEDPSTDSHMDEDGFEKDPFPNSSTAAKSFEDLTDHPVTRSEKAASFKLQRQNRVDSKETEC

Columns and labels:
[1] = target: endogenous EGFR of A431 and NCI-H226 cells (human (endogenous in A431 and NCI-H226)) (UniProt P00533); experiment: proximity ligation; Duolink PLA on fixed A431 cells, endogenous proteins, anti-EGFR (EMab-134) with anti-PTK7, anti-insulin receptor alpha or anti-ADAM17; DMSO, EGF or EGF+gefitinib
[2] = target: bls-EGFR extracellular domain (human) (UniProt P00533); experiment: AlphaScreen or HTRF; biotinylated bls-EGFR extracellular domain and FLAG fusion proteins from the wheat cell-free system mixed in 100 mM Tris-HCl pH 8.0, 1 mg/mL BSA, 100 mM NaCl, 0.1% Tween20, 26 °C 1 h; streptavidin donor and protein A acceptor beads
[3] = target: EGFR-LgBiT (human) (UniProt P00533); experiment: split reporter; NanoBiT in live HEK293T cells: PTK7-SmBiT or INSR-SmBiT with EGFR-LgBiT; DHFR-LgBiT as control

binding [1] | binding [2] | Substance | other results
binds | – | ADAM17 (disintegrin and metalloproteinase domain-containing protein 17), endogenous (from UniProt P78536 215-824) (enzyme) | –
– | binds | FLAG-ADAM17 (from UniProt P78536 1-824) (enzyme) | –
– | binds | FLAG-INSR alpha [28-758aa] (from UniProt P06213 28-758) (domain or fragment) | –
binds | – | INSR (insulin receptor), endogenous (from UniProt P06213 28-1382) | –
– | – | INSR-SmBiT (from UniProt P06213 28-1382) (receptor) | binding [3]: binds
